Here are results for one substance from patent US9908919B2 (priority 2013, dated 2018).

The series is described as follows: general procedure: Fmoc solid-phase peptide synthesis; 2-chlorotrityl chloride-PS-resin (C-terminal acids); Phenethylamine-AMEBA-PS-resin (N-phenethyl carboxamides). The note with it: whole synthesis, scale 0.10 mmol.

In the case of pE-R-C*-R-L-C*-H-K-G-P-Nle-P-F-OH, the isolated mass is recorded as 36.8 mg.
